Results are given in words; binding and its absence hold for the method and conditions named. Some results given as binding are weak or reduced against the parent protein; the word gives no strength.
Tests used:
H-ficolin (human) = H-ficolin (human) (UniProt O75636); experiment: ELISA; 0.8 ug ficolin (L-, M- or H-) immobilised first on Maxisorp wells, CRP added; bound CRP detected by antibody; HSA-coated wells subtracted; both purified
M-ficolin, recombinant = M-ficolin, recombinant (UniProt O00602); experiment: as above

Chains of the proteins cited; added tags and fusions are not shown. Residues count along the entry.
UniProt O75636, residues 24-299: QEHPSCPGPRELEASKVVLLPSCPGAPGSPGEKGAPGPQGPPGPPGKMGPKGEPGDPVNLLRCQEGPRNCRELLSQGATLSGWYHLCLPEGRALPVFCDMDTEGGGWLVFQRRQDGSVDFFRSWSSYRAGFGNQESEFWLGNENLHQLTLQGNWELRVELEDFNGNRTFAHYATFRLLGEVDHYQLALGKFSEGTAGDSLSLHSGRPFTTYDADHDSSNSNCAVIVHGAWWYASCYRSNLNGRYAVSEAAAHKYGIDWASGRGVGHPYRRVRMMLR
UniProt O00602, residues 30-326: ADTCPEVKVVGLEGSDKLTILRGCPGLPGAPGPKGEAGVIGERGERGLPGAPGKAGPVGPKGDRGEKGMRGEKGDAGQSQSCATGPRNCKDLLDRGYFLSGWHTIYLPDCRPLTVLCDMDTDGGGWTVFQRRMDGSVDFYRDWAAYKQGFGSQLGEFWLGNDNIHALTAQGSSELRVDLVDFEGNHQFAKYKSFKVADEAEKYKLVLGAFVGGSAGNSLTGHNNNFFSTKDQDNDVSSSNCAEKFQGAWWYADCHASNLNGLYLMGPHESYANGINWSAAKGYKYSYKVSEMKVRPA

B1: C-reactive protein (CRP), human, purified (Sigma) (protein, UniProt P02741 19-224)
chain: QTDMSRKAFVFPKESDTSYVSLKAPLTKPLKAFTVCLHFYTELSSTRGYSIFSYATKRQDNEILIFWSKDIGYSFTVGGSEILFEVPEVTVAPVHICTSWESASGIVEFWVDGKPRVRKSLKKGYTVGAEASIILGQEQDSFGGNFEGSQSLVGDIGNVNMWDFVLSPDEINTIYLGGPFSPNVLNWRALKYEVQGEVFTKPQLWP
binding (H-ficolin (human)): no binding
binding (M-ficolin, recombinant): binds
